Results are given in words; binding and its absence hold for the method and conditions named. Binding seen in cells or lysates may run through a third protein. Some binding calls cover weakened binding; strength is not graded here. For some of these results: Sequences can lack the tags named with a protein.
Legend:
[1] = biological target: T1, T. vaginalis F-actin capping protein subunit α (TvFACPα), endogenous (Trichomonas vaginalis (endogenous in TH17 trophozoites)) (UniProt A2FE30); assay: co-IP; endogenous TvFACPα immunoprecipitated from lysates of flagellate and amoeboid TH17 trophozoites; Western blotting
T1 sequence: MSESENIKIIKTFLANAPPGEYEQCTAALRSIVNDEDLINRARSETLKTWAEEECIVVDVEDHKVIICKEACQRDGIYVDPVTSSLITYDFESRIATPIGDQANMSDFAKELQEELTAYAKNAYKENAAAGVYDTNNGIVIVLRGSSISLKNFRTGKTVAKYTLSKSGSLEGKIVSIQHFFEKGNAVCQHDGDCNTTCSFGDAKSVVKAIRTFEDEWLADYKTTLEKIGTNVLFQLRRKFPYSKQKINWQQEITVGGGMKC

Chains of the proteins cited; added tags and fusions are not shown.
UniProt A2DKH3: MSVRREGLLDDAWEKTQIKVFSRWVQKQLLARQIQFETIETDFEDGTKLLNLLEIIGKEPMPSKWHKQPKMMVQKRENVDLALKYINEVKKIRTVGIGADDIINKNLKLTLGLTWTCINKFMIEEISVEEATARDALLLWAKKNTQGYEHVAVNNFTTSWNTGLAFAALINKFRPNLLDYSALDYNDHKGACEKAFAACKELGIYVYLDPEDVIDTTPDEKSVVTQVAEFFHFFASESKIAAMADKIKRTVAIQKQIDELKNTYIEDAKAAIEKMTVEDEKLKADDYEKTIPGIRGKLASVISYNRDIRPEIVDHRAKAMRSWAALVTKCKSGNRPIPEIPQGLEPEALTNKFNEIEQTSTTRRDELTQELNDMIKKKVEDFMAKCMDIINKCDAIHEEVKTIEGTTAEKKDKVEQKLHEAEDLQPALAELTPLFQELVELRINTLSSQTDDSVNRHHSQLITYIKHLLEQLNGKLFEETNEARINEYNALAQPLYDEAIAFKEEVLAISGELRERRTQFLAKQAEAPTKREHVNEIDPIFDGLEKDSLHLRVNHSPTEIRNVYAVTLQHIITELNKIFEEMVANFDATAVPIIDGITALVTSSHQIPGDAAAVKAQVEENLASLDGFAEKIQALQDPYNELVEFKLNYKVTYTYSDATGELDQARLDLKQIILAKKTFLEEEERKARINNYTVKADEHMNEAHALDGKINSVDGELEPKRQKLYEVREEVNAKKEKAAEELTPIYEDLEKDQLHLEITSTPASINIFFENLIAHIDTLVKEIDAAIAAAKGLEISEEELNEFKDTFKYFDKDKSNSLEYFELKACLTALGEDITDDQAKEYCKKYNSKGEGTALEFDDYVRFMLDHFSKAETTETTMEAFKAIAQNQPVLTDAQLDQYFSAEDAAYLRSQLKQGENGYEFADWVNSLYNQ
UniProt P90623: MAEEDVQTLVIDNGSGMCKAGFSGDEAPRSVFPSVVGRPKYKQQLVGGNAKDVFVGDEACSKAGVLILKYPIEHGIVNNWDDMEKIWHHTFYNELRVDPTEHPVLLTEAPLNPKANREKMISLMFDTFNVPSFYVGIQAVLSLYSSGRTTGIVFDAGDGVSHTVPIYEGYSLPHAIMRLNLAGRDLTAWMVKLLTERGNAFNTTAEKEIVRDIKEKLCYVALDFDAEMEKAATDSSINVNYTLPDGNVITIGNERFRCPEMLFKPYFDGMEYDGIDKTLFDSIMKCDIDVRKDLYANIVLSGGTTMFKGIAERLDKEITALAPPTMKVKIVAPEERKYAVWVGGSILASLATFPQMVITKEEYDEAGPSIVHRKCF

[2] = biological target: T2, HA-TvFACPα (Trichomonas vaginalis) (UniProt A2FE30); assay: co-IP; anti-HA agarose beads on lysates of TH17 trophozoites overexpressing HA-TvFACPα or its mutants (1% Triton X-100, 5 mM EDTA in TBS, 4°C overnight); Western blotting for α-actin and α-actinin; also after DMSO or TBB (CKII inhibitor) treatment
T2 sequence: T1 sequence

Substance	binding [1]	binding [2]
α-Actinin, putative (from UniProt A2DKH3 1-931)	binds	binds
α-actin (endogenous T. vaginalis) (from UniProt P90623 1-376)	binds	binds

From publication PMC10434240
